Data as given in PubChem BioAssay AID504808 (Drosophila RNAi Screening Center, 2011)

- Aim: 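Chromatin factors that keep E2F targets switched off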 (primary screen)
- System: Drosophila S2 cells
- Knock-down reagent: long dsRNA against Drosophila genes
- Measurement: 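Firefly luciferase driven by E2F sites, normalised to Renilla luciferase on the same minimal promoter, measured by plate reader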
- Direction: E2F firefly: higher = more E2F reporter activity; Renilla normaliser: higher = more normaliser reporter signal
- Active means: 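a knock-down counted as active when the firefly/Renilla E2F signal rose above 50%, a threshold chosen arbitrarily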
The screen tested about 21,000 reagents; below is an unselected part of those that have a named target and a result. In the full data, 18 (0.084%) got an active call. 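Raw counts without plate normalisation, one of two replicates; the ratio scores behind the calls were not deposited.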 A plus sign joins genes that one reagent is predicted to hit. Not stated in the record: the amount of reagent, the time to read-out.

| predicted target | amplicon | E2F firefly, rep 1 | Renilla normaliser, rep 1 | outcome |
| --- | --- | --- | --- | --- |
| CG5466 | DRSC15808 | 48904 | 3903 | inactive |
| Ald2 | DRSC15799 | 97563 | 5086 | inactive |
| Arpc1 | DRSC03438 | 91456 | 3821 | inactive |
| Vm32E | DRSC03474 | 1.82e5 | 4824 | inactive |
| Abca3 | DRSC20546 | 1.42e5 | 5833 | inactive |
| betaTry | DRSC07582 | 1.04e5 | 5020 | inactive |
| msl-1 | DRSC03573 | 89820 | 3553 | inactive |
| Plap | DRSC00678 | 89457 | 4511 | inactive |
| mRpL50 | DRSC11015 | 71281 | 3334 | inactive |
| Csk | DRSC12861 | 89568 | 2703 | inactive |
| Csk | DRSC15223 | 55129 | 2833 | inactive |
| eEF1delta | DRSC02790 | 72353 | 3277 | inactive |
| I-2 | DRSC11194 | 1.11e5 | 7600 | inactive |
| CG8668 | DRSC03101 | 91445 | 4278 | inactive |
| CG7276 | DRSC10797 | 1.60e5 | 8164 | inactive |
| Mtpbeta | DRSC04663 | 93983 | 3718 | inactive |
| CG5265 | DRSC15756 | 1.28e5 | 6720 | inactive |
| CG18223 | DRSC10306 | 1.25e5 | 6125 | inactive |
| Efhc1.2 | DRSC06027 | 79501 | 3866 | inactive |
| CG18128 | DRSC04304 | 1.09e5 | 4551 | inactive |
| Btk | DRSC02008 | 1.47e5 | 5069 | inactive |
| Btk | DRSC02666 | 91269 | 4009 | inactive |
| Camp | DRSC07004 | 1.41e5 | 4387 | inactive |
| CG17739 | DRSC06689 | 3137 | 217 | inactive |
| w-cup | DRSC03048 | 1.42e5 | 4481 | inactive |
| Cyp4ac2 | DRSC03303 | 1.54e5 | 5344 | inactive |
| Or67c | DRSC11242 | 1.20e5 | 6382 | inactive |
| CG8929 | DRSC07298 | 69019 | 3774 | inactive |
| LManIII | DRSC03221 | 1.50e5 | 5312 | inactive |
| RpL7-like + CG34164 | DRSC02836 | 79265 | 4400 | inactive |
| RpL7-like + CG34164 | DRSC02837 | 1.05e5 | 4011 | inactive |
| DAT | DRSC07394 | 1.50e5 | 5840 | inactive |
| CG12716 | DRSC19493 | 65865 | 4332 | inactive |
| OdsH | DRSC20263 | 1.54e5 | 6574 | inactive |
| CG16775 | DRSC10225 | 1.64e5 | 7585 | inactive |
| TSG101 | DRSC11098 | 1.67e5 | 8646 | inactive |
| vanin-like | DRSC17440 | 76995 | 2131 | inactive |
| CG7991 | DRSC08609 | 92914 | 3786 | inactive |
| CG30158 | DRSC04956 | 1.43e5 | 5510 | inactive |
| CG30158 | DRSC04974 | 1.41e5 | 4582 | inactive |
| CG30158 | DRSC04975 | 1.56e5 | 4586 | inactive |
| CG30158 | DRSC05012 | 1.47e5 | 4941 | inactive |
| hyx | DRSC14462 | 56984 | 3328 | inactive |
| CG18622 | DRSC15360 | 1.20e5 | 5523 | inactive |
| Lhr | DRSC06759 | 69236 | 3021 | inactive |
| ATP8B | DRSC14961 | 1.38e5 | 6387 | inactive |
| sta | DRSC18838 | 71166 | 5846 | inactive |
| Eig71Eh | DRSC11155 | 1.62e5 | 7552 | inactive |
| CG18563 | DRSC02676 | 1.15e5 | 4259 | inactive |
| Fer1 | DRSC12507 | 1.34e5 | 6408 | inactive |
| Fer1 | DRSC12555 | 1.19e5 | 5579 | inactive |
| CG12182 | DRSC08142 | 69000 | 3276 | inactive |
| CG8142 | DRSC20086 | 1.56e5 | 5572 | inactive |
| CG42685 | DRSC01971 | 1.03e5 | 4584 | inactive |
| CG4957 | DRSC02793 | 1.59e5 | 5484 | inactive |
| plu | DRSC07665 | 1.49e5 | 5006 | inactive |
| pzg | DRSC11848 | 1.15e5 | 146 | active |

Reformatted: 7 of the entries above
{"predicted target": "Lhr", "amplicon": "DRSC06759", "E2F firefly, rep 1": 69236, "Renilla normaliser, rep 1": 3021, "outcome": "inactive"}
{"predicted target": "ATP8B", "amplicon": "DRSC14961", "E2F firefly, rep 1": 1.38e5, "Renilla normaliser, rep 1": 6387, "outcome": "inactive"}
{"predicted target": "sta", "amplicon": "DRSC18838", "E2F firefly, rep 1": 71166, "Renilla normaliser, rep 1": 5846, "outcome": "inactive"}
{"predicted target": "Eig71Eh", "amplicon": "DRSC11155", "E2F firefly, rep 1": 1.62e5, "Renilla normaliser, rep 1": 7552, "outcome": "inactive"}
{"predicted target": "CG18563", "amplicon": "DRSC02676", "E2F firefly, rep 1": 1.15e5, "Renilla normaliser, rep 1": 4259, "outcome": "inactive"}
{"predicted target": "Fer1", "amplicon": "DRSC12507", "E2F firefly, rep 1": 1.34e5, "Renilla normaliser, rep 1": 6408, "outcome": "inactive"}
{"predicted target": "Fer1", "amplicon": "DRSC12555", "E2F firefly, rep 1": 1.19e5, "Renilla normaliser, rep 1": 5579, "outcome": "inactive"}
